PubChem BioAssay AID1259308 | NCATS – 2017
Aim: 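Genes whose loss raises luciferase production in HEK293 cells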 (primary screen). Cell system: human HEK293 embryonic kidney cells stably expressing firefly luciferase (HEK-CMV-Luc2-Hygro). Knock-down reagent: single siRNA against human genes, 0.8 pmol siRNA per well. Duration: 72 h. Measured: 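Luciferase light (ONE-Glo) measured on one replicate plate set and viability (CellTiter-Glo) on the other, scaled to a negative control siRNA, with robust z-scores and luciferase per cell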. Scale: total luciferase, z-score and total luciferase, % of control: higher = more reporter protein produced; luciferase per cell, z-score: higher = more reporter output per viable cell. Active means: 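Active when the median/MAD z-score for overall luciferase is greater than 3; a gene was taken forward for validation with new siRNAs if at least two of its three siRNAs passed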. Calls: active = raised luciferase; inactive = no rise.
In all, the deposit lists about 59,000 reagents; shown is a part drawn at random. About 1,510 of all reagents (2.6%) count as active. 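Calls use total luciferase alone and ignore viability, so some active siRNAs may act by altering cell number.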 The numbers tell different reagents against one gene apart. Not all columns of the deposit are shown.

no.	gene	reagent no.	total luciferase, z-score	total luciferase, % of control	luciferase per cell, z-score	activity call
1	C1orf115	1	-0.556	70.8	-0.751	inactive
2	C1orf115	2	-0.706	67.8	-0.993	inactive
3	C1orf115	3	2.65	135	2.61	inactive
4	SERF1A	1	-0.575	70.5	0.943	inactive
5	SERF1A	2	-0.336	75.2	2.45	inactive
6	SERF1A	3	1.61	114	2.56	inactive
7	CD200R1	1	-0.399	73.9	-0.886	inactive
8	CD200R1	2	-0.143	79	-0.554	inactive
9	CD200R1	3	0.71	96	-0.02	inactive
10	COL21A1	1	-1.5	52	-2.09	inactive
11	COL21A1	2	-1.24	57.3	-1.71	inactive
12	COL21A1	3	-0.694	68.1	-1.28	inactive
13	IRAG2	1	-0.179	78.3	-0.0216	inactive
14	IRAG2	2	-0.0629	80.6	-0.0343	inactive
15	IRAG2	3	0.423	90.3	0.269	inactive
16	IRAG2	4	0.698	95.8	0.299	inactive
17	IRAG2	5	1.61	114	1.76	inactive
18	IRAG2	6	-0.0393	81.1	-0.522	inactive
19	ZFP2	1	0.697	95.7	0.153	inactive
20	ZFP2	2	-0.921	63.6	-0.76	inactive
21	ZFP2	3	-1.21	57.8	-1.42	inactive
22	PYROXD1	1	1.81	118	0.994	inactive
23	PYROXD1	2	-0.322	75.5	-0.659	inactive
24	PYROXD1	3	1.37	109	1.23	inactive
25	ZNF48	1	-1.4	54	-0.489	inactive
26	ZNF48	2	-0.617	69.6	-0.0546	inactive
27	ZNF48	3	1.39	109	1.78	inactive

Already shown: an excerpt of the list.
no.	gene	reagent no.	total luciferase, z-score	total luciferase, % of control	luciferase per cell, z-score	activity call
18	IRAG2	6	-0.0393	81.1	-0.522	inactive
19	ZFP2	1	0.697	95.7	0.153	inactive
20	ZFP2	2	-0.921	63.6	-0.76	inactive
21	ZFP2	3	-1.21	57.8	-1.42	inactive
22	PYROXD1	1	1.81	118	0.994	inactive
23	PYROXD1	2	-0.322	75.5	-0.659	inactive
24	PYROXD1	3	1.37	109	1.23	inactive

The results go on:
no.	gene	reagent no.	total luciferase, z-score	total luciferase, % of control	luciferase per cell, z-score	activity call
28	ZMYM5	1	1.92	120	1.43	inactive
29	ZMYM5	2	1.58	113	1.21	inactive
30	ZMYM5	3	-0.729	67.4	-0.949	inactive
31	TDO2	1	0.576	93.3	0.696	inactive
32	TDO2	2	1.16	105	1.16	inactive
33	TDO2	3	-0.029	81.3	-0.44	inactive
34	ASCL2	1	-0.4	73.9	-0.218	inactive
35	ASCL2	2	1.11	104	0.138	inactive
36	ASCL2	3	-0.00933	81.7	0.732	inactive
37	CARD14	1	0.861	99	1.61	inactive
38	CARD14	2	0.895	99.7	0.538	inactive
39	CARD14	3	-0.262	76.7	0.959	inactive
40	TMEM106A	1	1.94	121	2.03	inactive
41	TMEM106A	2	-2.49	32.3	-2.01	inactive
42	TMEM106A	3	0.657	95	0.67	inactive
43	DAW1	1	2.06	123	1.1	inactive
44	DAW1	2	2.51	132	1.83	inactive
45	DAW1	3	-0.244	77	0.233	inactive
46	ZIC3	1	-0.0218	81.5	0.512	inactive
47	ZIC3	2	2.49	131	2.4	inactive
48	ZIC3	3	-0.37	74.5	-0.57	inactive
49	OPN4	1	-0.0946	80	0.14	inactive
50	OPN4	2	-0.731	67.4	-0.796	inactive
51	OPN4	3	-0.213	77.6	-0.201	inactive
52	CDC23	1	-1.95	43.1	-2.48	inactive
53	CDC23	2	0.346	88.8	0.236	inactive
54	CDC23	3	-1.26	56.9	-1.7	inactive
55	SLC27A5	1	-0.604	69.9	-0.774	inactive
56	SLC27A5	2	1.55	113	1.49	inactive
57	SLC27A5	3	3.87	159	2.58	active
58	GSTM3	1	-0.55	71	-0.502	inactive
59	GSTM3	2	-0.229	77.3	0.299	inactive
60	GSTM3	3	-0.837	65.2	-1.01	inactive
61	C19orf47	1	-2.46	33	-1.81	inactive
62	C19orf47	2	-0.347	75	-0.0898	inactive
63	C19orf47	3	-0.833	65.3	-1.27	inactive
64	CD207	1	0.517	92.2	1.02	inactive
65	CD207	2	0.0659	83.2	0.0948	inactive
66	CD207	3	-1.25	57	-1.32	inactive
67	PPIL3	1	3.16	145	2.17	active
68	PPIL3	2	0.416	90.2	0.415	inactive
69	PPIL3	3	0.734	96.5	0.464	inactive
70	TNFRSF10A-DT	1	-1.41	53.8	-0.808	inactive
71	TNFRSF10A-DT	2	0.247	86.8	0.655	inactive
72	TNFRSF10A-DT	3	0.328	88.4	0.47	inactive
73	ADAM23	1	-0.862	64.7	-1.05	inactive
74	ADAM23	2	1.69	115	0.851	inactive
75	ADAM23	3	-0.493	72.1	-0.314	inactive
